One substance from publication PMC3789215 can be followed below.

The chains behind the UniProt entries cited, without tags or fusion partners. Where a name states a change or a piece, a line headed by the entry shows the natural chain unless it says otherwise.
UniProt Q8C6B2: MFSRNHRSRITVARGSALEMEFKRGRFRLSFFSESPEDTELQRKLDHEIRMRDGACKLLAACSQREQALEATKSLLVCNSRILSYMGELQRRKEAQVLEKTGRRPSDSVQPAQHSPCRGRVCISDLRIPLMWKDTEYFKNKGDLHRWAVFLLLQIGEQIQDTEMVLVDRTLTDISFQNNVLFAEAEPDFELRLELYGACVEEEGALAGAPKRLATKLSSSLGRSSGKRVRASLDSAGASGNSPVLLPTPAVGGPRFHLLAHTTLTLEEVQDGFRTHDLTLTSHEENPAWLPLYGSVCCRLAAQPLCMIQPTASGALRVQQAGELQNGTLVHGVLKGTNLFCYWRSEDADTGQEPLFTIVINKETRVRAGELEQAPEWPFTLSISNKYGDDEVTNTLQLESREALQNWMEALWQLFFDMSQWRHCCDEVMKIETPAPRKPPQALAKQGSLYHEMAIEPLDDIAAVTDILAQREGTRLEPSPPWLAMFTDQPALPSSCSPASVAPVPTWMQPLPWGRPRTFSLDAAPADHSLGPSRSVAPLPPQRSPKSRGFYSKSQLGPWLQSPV
UniProt Q9QUI0: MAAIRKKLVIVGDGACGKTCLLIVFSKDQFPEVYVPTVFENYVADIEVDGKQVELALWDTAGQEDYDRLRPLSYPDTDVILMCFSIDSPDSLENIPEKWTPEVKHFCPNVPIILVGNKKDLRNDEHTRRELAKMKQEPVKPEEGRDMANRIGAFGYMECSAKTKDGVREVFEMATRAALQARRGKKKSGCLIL

The target of experiment [1] is Rhotekin RBD (Rho-binding domain) agarose beads (UniProt Q8C6B2). The experiment can be described thus: pull-down; as a1, with GDP-loaded samples (negative control); only the target purified.
Experiment [2] shares this target. The experiment can be described thus: pull-down; Rhotekin RBD agarose beads (40 ul slurry) incubated with mouse heart tissue lysate (naive, sham, 1 month post-SCI; GTPgammaS-loaded samples as positive control), 4 C, 1 h; washed three times in assay lysis buffer; immunoblot with anti-RhoA; only the target purified. On the technique in general: In western blotting, separated proteins are transferred to a membrane and probed.

No constants are given. Whether binding was seen depends on the method and setting. Binding seen in cells or lysates may run through a third protein. For some assays here: A result given as binding can be weak or reduced; the word gives no strength.

Consider RhoA (from UniProt Q9QUI0 1-193), for which the binding entry is reported as “no binding (only GDP-loaded samples)” in experiment [1] and “binds” in experiment [2].
